In PubChem BioAssay AID504861 (Broad Institute, 2011) one finds activity change, negative = cytotoxicity data, which are given here for 58 molecules.

Hit rate of the full screen: of about 1,200 compounds, about 290 (24%) were called active. Inconclusive results (about 3%) are left out.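 The calls were made as follows: active = compounds lowering cell viability signal with fitted half-maximal concentration at most ten times their highest tested concentration; inconclusive = flat fit with 30 to 70% signal loss, or poor fit; inactive = the rest.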 The entries are a selection whose mix differs from that of the whole data set. Potency and affinity values are given separately.

The assay can be described thus: HEK293T cell viability reduction, dose response, cytotoxicity control for LMP1 NF-kB inhibitor project, CellTiter-Glo luminescence, cherry-picks (AID 504861). The following applies: CellTiter-Glo ATP luminescence, 48 h; at 26 µM (top of the series).
Take `COc1ccc(C(=O)Nc2cc(C)c(NC(=O)c3ccccc3OC)cn2)cc1`: the activity change, negative = cytotoxicity is inactive: -4.03%. For `C[C@H](NC(=O)N1CCn2c1nc1ccccc12)C(=O)NCC1CCCO1` (stereo partly drawn) the value was inactive: 22.1%; for `O=C(C1CC1)N1N=C(c2ccc(Br)cc2)CC1(O)C(F)(F)F` (stereo not drawn), inactive: -1.28%; for `COc1ccc(Nc2oc(COc3ccccc3OC)nc2C#N)cc1`, inactive: -1.64%.

`O=C(Nc1ccc(F)c(F)c1)C1CCCCC1`: the activity change, negative = cytotoxicity was inactive: 2.12%. Turning to `CN1C(=O)N(C)c2ccc(C=O)c3cccc1c23`, the activity change, negative = cytotoxicity was inactive: 6.7%.

Turning to `COc1cccc(C2=CC(=O)C[C@H](c3ccc4c(c3)OCO4)C2)c1`, the activity change, negative = cytotoxicity is inactive: -0.577%. `Cc1ccc(C)c(S(=O)(=O)N2CCN(CC(=O)N3CCc4ccccc4C3)CC2)c1`: the activity change, negative = cytotoxicity is inactive: 7.78%. For `CCn1c(SC(C)C)nnc1-c1c[nH]c2ccccc12` the value was inactive: 4.25%; for `Cc1cc(=S)[nH]c2ccccc12`, inactive: 5.57%; for `O=c1cc(C2CCCCC2)[nH]c(=O)[nH]1`, inactive: 11.6%. Under `O=c1cc(Cl)nc2ccccn12` stands inactive: 5.86%; under `CCN(C(=O)c1cccc(NC(=O)c2ccccc2)c1)C1CCCCC1`, inactive: 1.08%; under `COc1cc2nc(N3CCN(C(=O)C4CCCO4)CC3)nc(N)c2cc1OC` (stereo not drawn), inactive: 1.52%. Under `Cc1ccc(CNC(=O)C(=O)NCC2OCCN2S(=O)(=O)c2ccc(Cl)cc2)cc1` (stereo not drawn) stands inactive: 12.9%; under `O=C(Nc1cc(Cl)ccc1Cl)C1Cc2ccccc2O/C1=N\O` (stereo not drawn), inactive: 8.17%.

Consider `CCCn1c(C)cc(C(=O)CN2C(=O)c3ccccc3S2(=O)=O)c1C`, for which the activity change, negative = cytotoxicity is inactive: 9.62%. For `Cc1ccc(-n2c(=O)c3c(c4cc(C)ccc4n3C)n(CC(=O)NCC3CCCO3)c2=O)cc1` (stereo not drawn) the value was inactive: 4.29%; for `CC1=C(C(=O)OCc2ccc3c(c2)OCO3)C(c2ccc(Cl)cc2)NC(=O)N1` (stereo not drawn), inactive: -5.93%; for `Cc1cccn2c(=O)c(C=NCCO)c(NCc3ccco3)nc12`, inactive: 4.6%. Under `Cc1ccc(-n2cc(C(=O)c3ccccc3O)cn2)cc1` stands inactive: 1.39%; under `O=C1CCC(C(=O)N2CCCCCC2)CN1CCc1ccc(Cl)cc1` (stereo not drawn), inactive: 5.72%; under `CC1(C)CC(=O)C(CC2=C(O)CC(C)(C)CC2=O)=C(O)C1`, inactive: 2.82%. For `CCC(C)(C)NC(=O)C(c1ccc(F)cc1)N(CCOC)C(=O)CCC(=O)Nc1nccs1` (stereo not drawn) the value was inactive: -8.1%; for `Cc1sc2nc(SCC(=O)OC(C)C)n(C)c(=O)c2c1C`, inactive: 5.98%.

Consider `COCCn1c(SCc2ccc(C(=O)OC)o2)nnc1-c1c[nH]c2ccccc12`, for which the activity change, negative = cytotoxicity was inactive: 5.54%. For `COCCNC(=O)C1CCC(CNS(=O)(=O)c2ccccc2)CC1` (stereo not drawn) the value was inactive: 6.32%.

As for `Cc1cc(N)nc(=O)n1C1CC(O)C(CO)O1` (stereo not drawn), the activity change, negative = cytotoxicity was inactive: 7.04%.

Consider `CC1S/C(=C(\C#N)C(=O)NCc2ccco2)N(Cc2ccco2)C1=O` (stereo not drawn), for which the activity change, negative = cytotoxicity was inactive: 8.63%.

Regarding `COc1ccc(CN2C(=O)c3cccnc3C2Nc2cc(Cl)ccc2OC)cc1` (stereo not drawn), the activity change, negative = cytotoxicity is inactive: 8.26%. For `COc1ccc(C(=O)NCCN2CCOCC2)cc1[N+](=O)[O-]`, the activity change, negative = cytotoxicity was inactive: 13.2%. Under `CN(Cc1ccccc1)c1nc(N)c([N+](=O)[O-])c(NCc2ccccc2)n1` stands inactive: -3.83%. For `NC(=O)c1sc2nccc(Nc3ccccc3)c2c1N` the value was inactive: 2.65%; for `COc1ccc(CC(C)NCC(O)c2ccc(O)c(NC=O)c2)cc1` (stereo not drawn), inactive: 9.09%.

As to `COc1ccc(OC)c(NC(=O)COC(=O)COc2ccc(Nc3ccccc3)cc2)c1`, the activity change, negative = cytotoxicity was inactive: 4.22%.

`CC(C)(C)C(=O)Nc1nnc(SCC(=O)Nc2ccc3c(c2)OCO3)s1`: the activity change, negative = cytotoxicity is inactive: 2.56%. Under `O=C1CCCN2N=C(SCC(=O)Nc3ccc(Br)cc3)SC2=N1` stands inactive: 2.42%; under `O=C(CN1C(=O)c2ccccc2S1(=O)=O)c1ccccc1`, inactive: 16.5%. Under `O=C(CCCOc1ccccc1)N1CCN(c2ccccc2)CC1` stands inactive: -1.04%; under `Cc1cc(C)n(C2CCCCC2OC(=O)c2ccccc2F)n1` (stereo not drawn), inactive: 7.27%; under `C[C@H]1C[C@H]2[C@@H]3CCC4=CC(=O)C=C[C@]4(C)[C@@]3(F)[C@@H](O)C[C@]2(C)[C@@]1(O)C(=O)CO`, inactive: 6.92%. With `Cc1nc2sc(-c3ccccc3)cc2c(=O)n1N`, the activity change, negative = cytotoxicity was inactive: -3.13%. Under `CC1=C(CC(=O)O)c2cc(F)ccc2C1=Cc1ccc(S(C)(=O)=O)cc1` stands inactive: 0.041%; under `CN(C)S(=O)(=O)c1ccc(Cl)c(C(=O)NCCNC(=O)c2cc(S(=O)(=O)N(C)C)ccc2Cl)c1`, inactive: 2.63%.

Turning to `O=C(c1sc2cc([N+](=O)[O-])ccc2c1Cl)N1CCOCC1`, the activity change, negative = cytotoxicity is inactive: 8.16%. Under `O=C(CCCN1C(=O)[C@H]2CC=CC[C@H]2C1=O)NCc1nc(-c2ccc(Cl)cc2)no1` stands inactive: 0.166%; under `O=c1c2cnn(-c3ccccc3)c2nc(-c2cccs2)n1-c1ccc(Cl)cc1`, inactive: -3.75%; under `O=C(Cc1ccc(Cl)cc1)NCC(=O)N1CCCCC1`, inactive: 6.35%. For `COc1ccc(NC(=O)CCS(=O)(=O)c2ccc3c(c2)CCN3C(C)=O)cc1` the value was inactive: 1.29%; for `CCOC(=O)Oc1c(OC)cc(C(=O)O[C@@H]2C[C@@H]3CN4CCc5c([nH]c6cc(OC)ccc56)[C@H]4C[C@@H]3[C@H](C(=O)OC)[C@H]2OC)cc1OC`, inactive: -5.9%. With `Cc1cccc(Cn2cc(SCC(=O)Nc3nccs3)c3ccccc32)c1`, the activity change, negative = cytotoxicity is inactive: 8.72%. For `Cc1nnc(NC(=O)CSc2nnc(Cc3cccn3C)n2CCc2ccccc2)s1` the value was inactive: 3.33%.

As for `CN1CCN(C(=O)C2=C[C@@H](C(C)(C)C)C[C@@H](OCc3ccc(CO)cc3)O2)CC1`, the activity change, negative = cytotoxicity is inactive: 3.73%. For `CCn1c(NC(=O)c2ccc(C)cc2)c2ccccc2nc1=O` the value was inactive: 1.77%; for `O=C(O)CN1C(=O)/C(=C\c2ccccc2OCc2ccc(Cl)cc2Cl)SC1=S`, inactive: 5.71%; for `COc1ccc(C(CNC(=O)Nc2ccccc2)N2CCN(C)CC2)cc1` (stereo not drawn), inactive: 5.13%. On to `CN(C1CCCCC1)S(=O)(=O)c1ccc(C(=O)N2CCN(c3nc4ccccc4s3)CC2)cc1`, for which the activity change, negative = cytotoxicity is inactive: 3.38%. Under `CC1(C)Cc2nc3sc4c(SCC(=O)O)ncnc4c3cc2CO1` stands inactive: 5.57%.
